Results reported in patent US4952493A, “Peptide substrates for detecting virus-specified protease activity” (priority 1987, dated 1990).
Several values for one entry are separate records, joined by “and”; a condition that tells them apart may be missing. Equal values may be shown once. Not every detail of the peptide structures is certain; ends, links or a residue may be inferred. Numbered stars: 1 amine (or outer) side, 2 acyl side, 3 side chain; on linkers, the order of the positions; unused ones are H or OH. Peptide text beside a SMILES is read from it. * marks the point of attachment. Suc = O=C(CCC(=O)[*:2])[*:1]; βNA = c1ccc2cc(N*)ccc2c1

Tested on: virus-specified protease activity in extracts of Poliovirus Type 2 infected HeLa-O cells
Assay type: biochemical
Conditions: pH 6

Question: CC(C)C[C@H](NC(=O)CNC(=O)[C@H](Cc1ccccc1)NC(=O)CCC(=O)O)C(=O)N[C@@H](CCC(N)=O)C(=O)Nc1ccc2ccccc2c1 [Suc-Phe-Gly-Leu-Gln-NA] (Suc-FGLQ-βNA) was tested. Which “Protease Activity, NA Substrate” value did it give?
Answer: 3.24 and 1.86
